# At least one peptide structure holds a part that was inferred or is arguable (an end, a ring closure or a residue). Where a SMILES comes first, the peptide text is derived from it. [ ]: non-standard residue; d: D form. pGlu = O=C1CC[C@@H](C(=O)O)N1
# Columns and labels:
# [1] = test system: granulocytes; assay: uptake of staphylococcus aureus by granulocytes in vitro (flow cytometry); format: cell-based; details: measured by flow cytometry
# [2] = test system: granulocytes and macrophages; assay: migration of granulocytes and macrophages in vivo (skin window in guinea pigs, local BCG stimulation)
smiles,measurement,setting,value
"NCCCC[C@H](NC(=O)[C@H](CS)NC(=O)[C@H](CC(=O)O)NC(=O)CNC(=O)[C@@H]1CCC(=O)N1)C(=O)O [Example 22, pGlu--Gly--Asp--Cys--Lys] ([pGlu]GDCK-OH)",uptake of staphylococcus aureus by granulocytes,[1],inhibit
same,migration of granulocytes and macrophages,[2],inhibit

# — patent publication US5484770A, “Peptide compounds which inhibit the proliferation of epidermal or epithelial stem cells” (Hafslund Nycomed Bioreg AS, priority 1988, dated 1996)
